No constants are given. Whether binding was seen depends on the method and setting. In cells and extracts the contact can be indirect.
Biological target: GST-MAP4K3 fusion protein (complete Drosophila CG7097 isoform B) (Drosophila melanogaster)
Assay: pull-down; GST-MAP4K3 or GST (same amounts, 50 µl) with 10 µl of S^35-Met labelled in vitro translation, over-night at 4°C in 20 mM Tris-HCl pH 8, 150 mM NaCl, 1 mM EDTA, 0,5% NP40; 10% SDS-PAGE and autoradiography; only the target purified

B1: Rheb (in vitro translated) (protein, UniProt Q9VND8 1-182)
chain: MPTKERHIAMMGYRSVGKSSLCIQFVEGQFVDSYDPTIENTFTKIERVKSQDYIVKLIDTAGQDEYSIFPVQYSMDYHGYVLVYSITSQKSFEVVKIIYEKLLDVMGKKYVPVVLVGNKIDLHQERTVSTEEGKKLAESWRAAFLETSAKQNESVGDIFHQLLILIENENGNPQEKSGCLVS
modifications: radiolabeled with S^35-Met
  binding: no binding
